According to paper PMC8072491:
No constants are given. Whether binding was seen depends on the method and setting. In cells and extracts the contact can be indirect. Some results given as binding are weak or reduced against the parent protein; the word gives no strength.

Protein sequences, listed by entry. Tags and fused reporters are not part of them.
UniProt P19338: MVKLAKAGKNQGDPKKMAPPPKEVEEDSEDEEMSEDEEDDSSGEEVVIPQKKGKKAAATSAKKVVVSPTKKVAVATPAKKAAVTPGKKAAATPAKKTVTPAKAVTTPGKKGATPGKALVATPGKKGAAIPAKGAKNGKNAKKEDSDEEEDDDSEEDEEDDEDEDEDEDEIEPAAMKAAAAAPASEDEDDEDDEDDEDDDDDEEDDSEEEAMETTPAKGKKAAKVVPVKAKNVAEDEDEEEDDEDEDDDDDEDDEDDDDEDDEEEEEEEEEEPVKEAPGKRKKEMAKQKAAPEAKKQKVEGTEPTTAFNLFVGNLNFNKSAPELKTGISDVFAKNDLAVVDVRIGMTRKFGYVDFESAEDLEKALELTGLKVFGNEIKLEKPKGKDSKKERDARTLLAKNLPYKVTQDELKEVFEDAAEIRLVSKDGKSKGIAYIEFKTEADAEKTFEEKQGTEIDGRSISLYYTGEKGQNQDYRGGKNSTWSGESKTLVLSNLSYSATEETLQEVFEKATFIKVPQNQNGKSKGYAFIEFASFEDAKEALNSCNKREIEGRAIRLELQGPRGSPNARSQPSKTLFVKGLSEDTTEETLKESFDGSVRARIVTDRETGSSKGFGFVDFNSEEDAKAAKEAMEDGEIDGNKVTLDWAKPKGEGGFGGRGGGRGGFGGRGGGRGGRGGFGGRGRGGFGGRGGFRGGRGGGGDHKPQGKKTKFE

Columns and labels:
[1] = target: human nucleolin fused to GFP (NCL-GFP), expressed in HEK293T cells (human) (UniProt P19338); assay: co-IP; lysate of HEK293T cells co-transfected with TDP-43-mKate2 and NCL-GFP; 200 ug total protein with 0.2 ug anti-NCL antibody, 16 h, 4°C; protein A-Sepharose; lysis buffer with 137 mM NaCl, 0.2% NP-40, 10% glycerol, 5 mM EDTA; with or without RNase A treatment of the lysate (2 ug, 4°C, 10 min); Western blot with anti-GFP and anti-TDP-43; non-transfected cells as control
[2] = target: human nucleolin fused to the red fluorescent protein mKate2 (NCL-mKate2), expressed in yeast (human) (UniProt P19338); assay: co-IP; lysate of TDP 2C yeast co-expressing TDP-43-GFP and NCL-mKate2; 1 mg total protein with 1 ug anti-NCL, anti-GFP or anti-RFP antibody, 16 h, 4°C; protein A-Sepharose; IP buffer 25 mM Tris-HCl pH 7, 75 mM NaCl, 1 mM EDTA, 2.5% glycerol, 0.2% NP-40, 0.5 mM DTT; Western blot; control without antibody

| binding [1] | binding [2] | Substance |
| --- | --- | --- |
| binds | – | human TDP-43 fused to mKate2 (TDP-43-mKate2), expressed in HEK293T cells (from UniProt Q13148 1-414) |
| – | binds | wild-type human TDP-43 fused to GFP (TDP-43-GFP chimera), expressed in yeast (from UniProt Q13148 1-414) |
